Reference: article PMC5559459
Results are given in words; binding and its absence hold for the method and conditions named. Some results given as binding are weak or reduced against the parent protein; the word gives no strength.

The chains behind the UniProt entries cited, without tags or fusion partners. Residues count along the entry.
UniProt O00206, residues 24-631: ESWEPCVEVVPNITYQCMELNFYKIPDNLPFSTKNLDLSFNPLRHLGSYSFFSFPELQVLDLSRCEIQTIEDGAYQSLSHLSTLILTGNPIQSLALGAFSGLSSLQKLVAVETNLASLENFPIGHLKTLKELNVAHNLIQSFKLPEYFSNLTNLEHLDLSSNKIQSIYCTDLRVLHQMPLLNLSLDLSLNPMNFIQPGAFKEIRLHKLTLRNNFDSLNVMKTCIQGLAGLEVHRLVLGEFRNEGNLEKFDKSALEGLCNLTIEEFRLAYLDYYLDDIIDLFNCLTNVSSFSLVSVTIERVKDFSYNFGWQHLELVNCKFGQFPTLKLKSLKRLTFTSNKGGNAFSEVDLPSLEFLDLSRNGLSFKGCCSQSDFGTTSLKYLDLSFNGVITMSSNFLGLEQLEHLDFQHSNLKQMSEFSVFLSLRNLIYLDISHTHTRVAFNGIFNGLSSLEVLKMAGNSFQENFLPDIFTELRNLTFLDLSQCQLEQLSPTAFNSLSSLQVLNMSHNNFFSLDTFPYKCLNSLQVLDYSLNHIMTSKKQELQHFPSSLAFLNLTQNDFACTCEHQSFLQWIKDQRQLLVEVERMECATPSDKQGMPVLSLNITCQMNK
UniProt Q8IWL2, residues 21-248: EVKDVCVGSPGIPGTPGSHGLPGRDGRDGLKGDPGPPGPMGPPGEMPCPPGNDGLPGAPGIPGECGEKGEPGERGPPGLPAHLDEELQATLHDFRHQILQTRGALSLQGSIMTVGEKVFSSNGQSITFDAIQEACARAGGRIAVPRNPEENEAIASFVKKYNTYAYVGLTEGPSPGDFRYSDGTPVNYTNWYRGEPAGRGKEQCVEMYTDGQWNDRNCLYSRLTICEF

Molecular target: recombinant human TLR4 (hTLR4) (human) (UniProt O00206)
Test: ELISA; 500 ng hTLR4 coated on 96-well plates; 5 μg SP-A in 10 mM HEPES pH 7.4, 0.15 M NaCl, 5 mM CaCl2, 2% fatty acid-free BSA, 37 °C, 5 h; detected with anti-human SP-A polyclonal antibody and HRP anti-rabbit IgG; background (vehicle) subtracted; both purified

binding: binds
Substance: recombinant human surfactant protein A (hSP-A), unmodified (from UniProt Q8IWL2 21-248)
